From PubChem BioAssay record AID504749 (NCATS, 2011).

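Malaria parasite (P. falciparum) lines kept in red blood cells; parasite DNA is measured by SYBR Green fluorescence after lysis, 72 h after compound addition.
Each compound was titrated across a series from about 0.000037 to 29 µM.
The number is the fitted AC50, the concentration giving a half-maximal change in signal; a lower value means higher potency, whether the curve shows a decrease or an increase.
Calls follow the curve class and fit quality: every row here is inconclusive, covering signal-raising curves and weak, poorly fitted, partial or highest-dose-only inhibition curves.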

Values are in µM.
Every entry below has the call inconclusive.
Only part of the assay is shown, chiefly results filed as inconclusive.
A potency from a partial, single-point or poor curve is only a rough figure.
Some entries filed as inconclusive have a full curve.

compound | condition | potency (µM) | remark
N[C@@H](Cc1ccc(N(CCCl)CCCl)cc1)C(=O)O | CP265 | 11.22 | inhibitor, single point
N[C@@H](Cc1ccc(N(CCCl)CCCl)cc1)C(=O)O | P94_40 | 10 | inhibitor, single point
N[C@@H](Cc1ccc(N(CCCl)CCCl)cc1)C(=O)O | ECU | 17.78 | inhibitor, single point
N[C@@H](Cc1ccc(N(CCCl)CCCl)cc1)C(=O)O | CP194 | 10.69 | inhibitor, partial curve, poor fit
N[C@@H](Cc1ccc(N(CCCl)CCCl)cc1)C(=O)O | CP250 | 10 | inhibitor, single point
N[C@@H](Cc1ccc(N(CCCl)CCCl)cc1)C(=O)O | DFO2036 | 11.22 | inhibitor, single point
N[C@@H](Cc1ccc(N(CCCl)CCCl)cc1)C(=O)O | CP191 | 11.22 | inhibitor, single point
N[C@@H](Cc1ccc(N(CCCl)CCCl)cc1)C(=O)O | AA1029 | 17.78 | inhibitor, single point
N[C@@H](Cc1ccc(N(CCCl)CCCl)cc1)C(=O)O | CP260 | 17.78 | inhibitor, single point
N[C@@H](Cc1ccc(N(CCCl)CCCl)cc1)C(=O)O | CP217 | 11.22 | inhibitor, single point
N[C@@H](Cc1ccc(N(CCCl)CCCl)cc1)C(=O)O | CP237 | 17.78 | inhibitor, single point
N[C@@H](Cc1ccc(N(CCCl)CCCl)cc1)C(=O)O | 3D7 | 17.78 | inhibitor, single point
N[C@@H](Cc1ccc(N(CCCl)CCCl)cc1)C(=O)O | C2A | 8.912 | inhibitor, single point
N[C@@H](Cc1ccc(N(CCCl)CCCl)cc1)C(=O)O | CP286 | 15.85 | inhibitor, single point
N[C@@H](Cc1ccc(N(CCCl)CCCl)cc1)C(=O)O | CP335 | 13.46 | inhibitor, single point
N[C@@H](Cc1ccc(N(CCCl)CCCl)cc1)C(=O)O | CP269 | 15.1 | inhibitor, single point
N[C@@H](Cc1ccc(N(CCCl)CCCl)cc1)C(=O)O | CP185 | 10 | inhibitor, single point
CCC1(C2=NCCN2)Cc2ccccc2O1 (stereo not drawn) | CP238 | 10 | inhibitor, single point
CCC1(C2=NCCN2)Cc2ccccc2O1 (stereo not drawn) | CP252 | 10 | inhibitor, single point
CCC1(C2=NCCN2)Cc2ccccc2O1 (stereo not drawn) | CP268 | 16.94 | inhibitor, single point
CCC1(C2=NCCN2)Cc2ccccc2O1 (stereo not drawn) | CP260 | 11.22 | inhibitor, single point
CCC1(C2=NCCN2)Cc2ccccc2O1 (stereo not drawn) | CP291 | 8.492 | inhibitor, partial curve
CCC1(C2=NCCN2)Cc2ccccc2O1 (stereo not drawn) | DIV30 | 19.01 | inhibitor, single point
CCC1(C2=NCCN2)Cc2ccccc2O1 (stereo not drawn) | CP247 | 10 | inhibitor, single point
CCC1(C2=NCCN2)Cc2ccccc2O1 (stereo not drawn) | CP269 | 15.1 | inhibitor, single point
CCC1(C2=NCCN2)Cc2ccccc2O1 (stereo not drawn) | C2A | 11.22 | inhibitor, single point
CCC1(C2=NCCN2)Cc2ccccc2O1 (stereo not drawn) | CP201 | 12 | inhibitor, partial curve
CCC1(C2=NCCN2)Cc2ccccc2O1 (stereo not drawn) | CP286 | 12.59 | inhibitor, partial curve
CCC1(C2=NCCN2)Cc2ccccc2O1 (stereo not drawn) | AS120 | 12.59 | inhibitor, single point
CCC1(C2=NCCN2)Cc2ccccc2O1 (stereo not drawn) | CP250 | 17.78 | inhibitor, single point
CCC1(C2=NCCN2)Cc2ccccc2O1 (stereo not drawn) | CP215 | 4.776 | inhibitor, partial curve, poor fit
CCC1(C2=NCCN2)Cc2ccccc2O1 (stereo not drawn) | CP266 | 7.569 | inhibitor, single point
CCC1(C2=NCCN2)Cc2ccccc2O1 (stereo not drawn) | CP194 | 16.94 | inhibitor, single point
CCC1(C2=NCCN2)Cc2ccccc2O1 (stereo not drawn) | CP305 | 6.012 | inhibitor, partial curve, poor fit
CCC1(C2=NCCN2)Cc2ccccc2O1 (stereo not drawn) | P93_24 | 12.59 | inhibitor, partial curve
CCC1(C2=NCCN2)Cc2ccccc2O1 (stereo not drawn) | CP217 | 11.22 | inhibitor, single point
CCC1(C2=NCCN2)Cc2ccccc2O1 (stereo not drawn) | CP265 | 10 | inhibitor, single point
CCC1(C2=NCCN2)Cc2ccccc2O1 (stereo not drawn) | DIV14 | 13.46 | inhibitor, single point
CCC1(C2=NCCN2)Cc2ccccc2O1 (stereo not drawn) | DFO2036 | 7.943 | inhibitor, partial curve
CCC1(C2=NCCN2)Cc2ccccc2O1 (stereo not drawn) | CP211 | 8.492 | inhibitor, partial curve
CCC1(C2=NCCN2)Cc2ccccc2O1 (stereo not drawn) | CP325 | 10.69 | inhibitor, single point
CCC1(C2=NCCN2)Cc2ccccc2O1 (stereo not drawn) | CP315 | 21.33 | inhibitor, partial curve, poor fit
CCC1(C2=NCCN2)Cc2ccccc2O1 (stereo not drawn) | CP256 | 10 | inhibitor, single point
CCC1(C2=NCCN2)Cc2ccccc2O1 (stereo not drawn) | DIV17 | 12 | inhibitor, partial curve
CCC1(C2=NCCN2)Cc2ccccc2O1 (stereo not drawn) | CP191 | 8.912 | inhibitor, single point
NC(=O)c1cc([N+](=O)[O-])cc([N+](=O)[O-])c1 | CP211 | 19.01 | inhibitor, partial curve, poor fit
NC(=O)c1cc([N+](=O)[O-])cc([N+](=O)[O-])c1 | CP269 | 7.569 | inhibitor, partial curve
NC(=O)c1cc([N+](=O)[O-])cc([N+](=O)[O-])c1 | W2 | 15.1 | inhibitor, single point
NC(=O)c1cc([N+](=O)[O-])cc([N+](=O)[O-])c1 | 7G8 | 14.13 | inhibitor, single point
NC(=O)c1cc([N+](=O)[O-])cc([N+](=O)[O-])c1 | CP185 | 12.59 | inhibitor, single point
NC(=O)c1cc([N+](=O)[O-])cc([N+](=O)[O-])c1 | P93_24 | 10 | inhibitor, single point
NC(=O)c1cc([N+](=O)[O-])cc([N+](=O)[O-])c1 | JCK | 0.3981 | inhibitor, full curve
NC(=O)c1cc([N+](=O)[O-])cc([N+](=O)[O-])c1 | CP217 | 11.22 | inhibitor, single point
NC(=O)c1cc([N+](=O)[O-])cc([N+](=O)[O-])c1 | DIV17 | 13.46 | inhibitor, single point
NC(=O)c1cc([N+](=O)[O-])cc([N+](=O)[O-])c1 | CP260 | 11.22 | inhibitor, single point

Once more, the final 3:

* NC(=O)c1cc([N+](=O)[O-])cc([N+](=O)[O-])c1 [CP217] : potency 11.22 µM (inhibitor, single point)
* NC(=O)c1cc([N+](=O)[O-])cc([N+](=O)[O-])c1 [DIV17] : potency 13.46 µM (inhibitor, single point)
* NC(=O)c1cc([N+](=O)[O-])cc([N+](=O)[O-])c1 [CP260] : potency 11.22 µM (inhibitor, single point)